Assay results taken from the supplement of paper PMC4604168 (melanoma cell lines).
The list shows a part of the results. Many values rest on one well or one pass, so single values are uncertain.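 Imaging used 1,536-well plates; nuclei positive for cleaved PARP by antibody were divided by total DNA-stained nuclei to yield the apoptosis fraction. Doses for screening kept most cells viable, and cell lines differ markedly in resting and induced cleaved-PARP levels.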

What was measured:
Assay in all cases: cleaved PARP positive nuclei fraction relative to DMSO control; melanoma cells; higher = more apoptosis
Conditions in all cases: library dose: low library concentration; 72 h
MZ2-MEL = test system: MZ2-MEL
MeWo = test system: MeWo
RPMI7951 = test system: RPMI7951
RVH-421 = test system: RVH-421
SkMel28 = test system: SkMel28
SkMel2 = test system: SkMel2
SkMel30 = test system: SkMel30
SkMel5 = test system: SkMel5
UACC257 = test system: UACC257
UACC62 = test system: UACC62
WM115 = test system: WM115
WM1716 = test system: WM1716
WM1745 = test system: WM1745
WM3526 = test system: WM3526
WM3619 = test system: WM3619
WM451Lu = test system: WM451Lu

Structure (SMILES): Cc1cn(-c2cc(NC(=O)c3ccc(C)c(Nc4nccc(-c5cccnc5)n4)c3)cc(C(F)(F)F)c2)cn1 [nilotinib] + CCN(CC)CCCCNc1ncc2cc(-c3cc(OC)cc(OC)c3)c(NC(=O)NC(C)(C)C)nc2n1 [PD173074] (first compound 0.2 µM, partner dose 0.1 µM)
- cleaved PARP positive nuclei fraction (MZ2-MEL): 93.1%
- cleaved PARP positive nuclei fraction (MeWo): 47.3%
- cleaved PARP positive nuclei fraction (RPMI7951): 105%
- cleaved PARP positive nuclei fraction (RVH-421): 83.9%
- cleaved PARP positive nuclei fraction (SkMel28): 185%
- cleaved PARP positive nuclei fraction (SkMel2): 58.2%
- cleaved PARP positive nuclei fraction (SkMel30): 30.6%
- cleaved PARP positive nuclei fraction (SkMel5): 75.7%
- cleaved PARP positive nuclei fraction (UACC257): 223%
- cleaved PARP positive nuclei fraction (UACC62): 100%
- cleaved PARP positive nuclei fraction (WM115): 102%
- cleaved PARP positive nuclei fraction (WM1716): 67.8%
- cleaved PARP positive nuclei fraction (WM1745): 97.2%
- cleaved PARP positive nuclei fraction (WM3526): 28.3%
- cleaved PARP positive nuclei fraction (WM3619): 72.8%
- cleaved PARP positive nuclei fraction (WM451Lu): 121%

Structure (SMILES): N#CC[C@H](C1CCCC1)n1cc(-c2ncnc3[nH]ccc23)cn1 [ruxolitinib] + O=C(O)C(=O)Nc1sc2c(c1C(=O)O)CCNC2 [TCS401] (first compound 1 µM, partner dose 1.66667 µM)
- cleaved PARP positive nuclei fraction (MZ2-MEL): 99%
- cleaved PARP positive nuclei fraction (MeWo): 126%
- cleaved PARP positive nuclei fraction (RPMI7951): 118%
- cleaved PARP positive nuclei fraction (RVH-421): 120%
- cleaved PARP positive nuclei fraction (SkMel28): 145%
- cleaved PARP positive nuclei fraction (SkMel2): 98.6%
- cleaved PARP positive nuclei fraction (SkMel30): 67.8%
- cleaved PARP positive nuclei fraction (SkMel5): 41.2%
- cleaved PARP positive nuclei fraction (UACC257): 368%
- cleaved PARP positive nuclei fraction (UACC62): 145%
- cleaved PARP positive nuclei fraction (WM115): 64%
- cleaved PARP positive nuclei fraction (WM1716): 60.7%
- cleaved PARP positive nuclei fraction (WM1745): 180%
- cleaved PARP positive nuclei fraction (WM3526): 41.5%
- cleaved PARP positive nuclei fraction (WM3619): 114%
- cleaved PARP positive nuclei fraction (WM451Lu): 79.2%

Structure (SMILES): O=C(/C=C/c1cccnc1)NCCCCC1CCN(C(=O)c2ccccc2)CC1 + COc1ccc2c(c1)CCC1C2CCC2(C)C(NCCCCCCN3C(=O)C=CC3=O)CCC12 [U73122] (first compound 0.01 µM, partner dose 0.4 µM)
- cleaved PARP positive nuclei fraction (MZ2-MEL): 765%
- cleaved PARP positive nuclei fraction (MeWo): 148%
- cleaved PARP positive nuclei fraction (RPMI7951): 115%
- cleaved PARP positive nuclei fraction (RVH-421): 118%
- cleaved PARP positive nuclei fraction (SkMel28): 166%
- cleaved PARP positive nuclei fraction (SkMel2): 567%
- cleaved PARP positive nuclei fraction (SkMel30): 156%
- cleaved PARP positive nuclei fraction (SkMel5): 84.2%
- cleaved PARP positive nuclei fraction (UACC257): 181%
- cleaved PARP positive nuclei fraction (UACC62): 63.9%
- cleaved PARP positive nuclei fraction (WM115): 77.5%
- cleaved PARP positive nuclei fraction (WM1716): 163%
- cleaved PARP positive nuclei fraction (WM1745): 88.4%
- cleaved PARP positive nuclei fraction (WM3526): 79.4%
- cleaved PARP positive nuclei fraction (WM3619): 106%
- cleaved PARP positive nuclei fraction (WM451Lu): 97.9%

Structure (SMILES): CCCCCCCCCCCCCCCCCCOP(=O)([O-])OC1CC[N+](C)(C)CC1 [Perifosine] + Oc1cc(-c2nc(-c3ccccc3)[nH]c2-c2ccncc2)ccc1Cl [L779450] (first compound 0.4 µM, partner dose 0.2 µM)
- cleaved PARP positive nuclei fraction (MZ2-MEL): 41.2%
- cleaved PARP positive nuclei fraction (MeWo): 282%
- cleaved PARP positive nuclei fraction (RPMI7951): 379%
- cleaved PARP positive nuclei fraction (RVH-421): 112%
- cleaved PARP positive nuclei fraction (SkMel28): 104%
- cleaved PARP positive nuclei fraction (SkMel2): 177%
- cleaved PARP positive nuclei fraction (SkMel30): 106%
- cleaved PARP positive nuclei fraction (SkMel5): 139%
- cleaved PARP positive nuclei fraction (UACC257): 102%
- cleaved PARP positive nuclei fraction (UACC62): 240%
- cleaved PARP positive nuclei fraction (WM115): 92.9%
- cleaved PARP positive nuclei fraction (WM1716): 70.9%
- cleaved PARP positive nuclei fraction (WM1745): 104%
- cleaved PARP positive nuclei fraction (WM3526): 92.2%
- cleaved PARP positive nuclei fraction (WM3619): 123%
- cleaved PARP positive nuclei fraction (WM451Lu): 35.5%

Structure (SMILES): Cc1cn(-c2cc(NC(=O)c3ccc(C)c(Nc4nccc(-c5cccnc5)n4)c3)cc(C(F)(F)F)c2)cn1 [nilotinib] + O=C(O)C(=O)Nc1sc2c(c1C(=O)O)CCNC2 [TCS401] (first compound 0.2 µM, partner dose 1.66667 µM)
- cleaved PARP positive nuclei fraction (MZ2-MEL): 129%
- cleaved PARP positive nuclei fraction (MeWo): 82%
- cleaved PARP positive nuclei fraction (RPMI7951): 141%
- cleaved PARP positive nuclei fraction (RVH-421): 147%
- cleaved PARP positive nuclei fraction (SkMel28): 46.1%
- cleaved PARP positive nuclei fraction (SkMel2): 90.6%
- cleaved PARP positive nuclei fraction (SkMel30): 170%
- cleaved PARP positive nuclei fraction (SkMel5): 169%
- cleaved PARP positive nuclei fraction (UACC257): 113%
- cleaved PARP positive nuclei fraction (UACC62): 245%
- cleaved PARP positive nuclei fraction (WM115): 76.7%
- cleaved PARP positive nuclei fraction (WM1716): 49.4%
- cleaved PARP positive nuclei fraction (WM1745): 100%
- cleaved PARP positive nuclei fraction (WM3526): 155%
- cleaved PARP positive nuclei fraction (WM3619): 99%
- cleaved PARP positive nuclei fraction (WM451Lu): 34.4%

Structure (SMILES): Cc1ccc(Nc2nccc(N(C)c3ccc4c(C)n(C)nc4c3)n2)cc1S(N)(=O)=O [Pazopanib] + Cn1cc(/C=C2\C(=O)Nc3cccnc32)c2ccccc21 [GW441756] (first compound 0.4 µM, partner dose 0.4 µM)
- cleaved PARP positive nuclei fraction (MZ2-MEL): 29.7%
- cleaved PARP positive nuclei fraction (MeWo): 122%
- cleaved PARP positive nuclei fraction (RPMI7951): 47.8%
- cleaved PARP positive nuclei fraction (RVH-421): 99.1%
- cleaved PARP positive nuclei fraction (SkMel28): 127%
- cleaved PARP positive nuclei fraction (SkMel2): 42.3%
- cleaved PARP positive nuclei fraction (SkMel30): 37.7%
- cleaved PARP positive nuclei fraction (SkMel5): 88.2%
- cleaved PARP positive nuclei fraction (UACC257): 76.3%
- cleaved PARP positive nuclei fraction (UACC62): 146%
- cleaved PARP positive nuclei fraction (WM115): 68.7%
- cleaved PARP positive nuclei fraction (WM1716): 51.7%
- cleaved PARP positive nuclei fraction (WM1745): 88.8%
- cleaved PARP positive nuclei fraction (WM3526): 78.1%
- cleaved PARP positive nuclei fraction (WM3619): 110%
- cleaved PARP positive nuclei fraction (WM451Lu): 36.5%

Structure (SMILES): Cc1cc(Nc2cc(N3CCN(C)CC3)nc(Sc3ccc(NC(=O)C4CC4)cc3)n2)n[nH]1 [Tozasertib] + COc1cc2c(Oc3ccc4[nH]c(C)cc4c3F)ncnc2cc1OCCCN1CCCC1 [cediranib] (first compound 0.006 µM, partner dose 0.4 µM)
- cleaved PARP positive nuclei fraction (MZ2-MEL): 210%
- cleaved PARP positive nuclei fraction (MeWo): 106%
- cleaved PARP positive nuclei fraction (RPMI7951): 105%
- cleaved PARP positive nuclei fraction (RVH-421): 75%
- cleaved PARP positive nuclei fraction (SkMel28): 124%
- cleaved PARP positive nuclei fraction (SkMel2): 31.1%
- cleaved PARP positive nuclei fraction (SkMel30): 119%
- cleaved PARP positive nuclei fraction (SkMel5): 75.6%
- cleaved PARP positive nuclei fraction (UACC257): 92.7%
- cleaved PARP positive nuclei fraction (UACC62): 269%
- cleaved PARP positive nuclei fraction (WM115): 98.5%
- cleaved PARP positive nuclei fraction (WM1716): 87.1%
- cleaved PARP positive nuclei fraction (WM1745): 110%
- cleaved PARP positive nuclei fraction (WM3526): 49.9%
- cleaved PARP positive nuclei fraction (WM3619): 100%
- cleaved PARP positive nuclei fraction (WM451Lu): 127%

Structure (SMILES): Cc1cn(-c2cc(NC(=O)c3ccc(C)c(Nc4nccc(-c5cccnc5)n4)c3)cc(C(F)(F)F)c2)cn1 [nilotinib] + CN(C)S(=O)(=O)c1ccc2c(c1)/C(=C/c1cc3c([nH]1)CCCC3)C(=O)N2 [SU6656] (first compound 0.2 µM, partner dose 0.4 µM)
- cleaved PARP positive nuclei fraction (MZ2-MEL): 116%
- cleaved PARP positive nuclei fraction (MeWo): 50.5%
- cleaved PARP positive nuclei fraction (RPMI7951): 137%
- cleaved PARP positive nuclei fraction (RVH-421): 146%
- cleaved PARP positive nuclei fraction (SkMel28): 257%
- cleaved PARP positive nuclei fraction (SkMel2): 74.6%
- cleaved PARP positive nuclei fraction (SkMel30): 68.8%
- cleaved PARP positive nuclei fraction (SkMel5): 70.8%
- cleaved PARP positive nuclei fraction (UACC257): 30.4%
- cleaved PARP positive nuclei fraction (UACC62): 115%
- cleaved PARP positive nuclei fraction (WM115): 69.3%
- cleaved PARP positive nuclei fraction (WM1716): 84.6%
- cleaved PARP positive nuclei fraction (WM1745): 97.3%
- cleaved PARP positive nuclei fraction (WM3526): 56.2%
- cleaved PARP positive nuclei fraction (WM3619): 90.1%
- cleaved PARP positive nuclei fraction (WM451Lu): 195%

Structure (SMILES): CCCCCCCCCCCCCCCCCCOP(=O)([O-])OC1CC[N+](C)(C)CC1 [Perifosine] + O=C(Nc1ccccc1)c1cc([N+](=O)[O-])ccc1Cl [GW9662] (first compound 0.4 µM, partner dose 2 µM)
- cleaved PARP positive nuclei fraction (MZ2-MEL): 141%
- cleaved PARP positive nuclei fraction (MeWo): 82.2%
- cleaved PARP positive nuclei fraction (RPMI7951): 97.6%
- cleaved PARP positive nuclei fraction (RVH-421): 47.2%
- cleaved PARP positive nuclei fraction (SkMel28): 155%
- cleaved PARP positive nuclei fraction (SkMel2): 28.9%
- cleaved PARP positive nuclei fraction (SkMel30): 91.7%
- cleaved PARP positive nuclei fraction (SkMel5): 78.6%
- cleaved PARP positive nuclei fraction (UACC257): 110%
- cleaved PARP positive nuclei fraction (UACC62): 186%
- cleaved PARP positive nuclei fraction (WM115): 81.8%
- cleaved PARP positive nuclei fraction (WM1716): 279%
- cleaved PARP positive nuclei fraction (WM1745): 93.7%
- cleaved PARP positive nuclei fraction (WM3526): 50.8%
- cleaved PARP positive nuclei fraction (WM3619): 107%
- cleaved PARP positive nuclei fraction (WM451Lu): 72.4%
